Data published in patent publication US20240368668A1, “SUBSTRATES AND BIOMARKERS OF ADAMTS7” (The Broad Institute, Inc., priority 2021, published 2024).

How the values were obtained:
[1] = system: mouse ADAMTS7; experiment: TMT10 TAILS N-terminomics, HUVEC experiment (process replicates, trypsin/AspN digest); assay type: cell-based, human; conditions: HUVEC TAILS experiment; total MS intensity of the N-terminal (neo-N-terminal) peptide identified by TAILS_id
Excerpt: (§1) ADAMTS7 Expression, Cell Culture and Preparation of the Secreted Proteins—Full-length mouse Adamts7 1-1857 (Uniprot Q68SA9, WT or E373Q catalytic mutant) with a carboxyl terminal 3xFLAG tag was used to generate custom adenoviruses as previously described. Adeno-CMV-Luciferase (Ad-Luc) from Vector Biolabs was used as a negative control. Human Coronary Artery Smooth Muscle Cells (HCA-SMC) were obtained from Lonza and expanded in Lonza SmGM-2 media in 15 cm tissue culture plates. Twenty-four hours before media collection, near confluent plates were transduced with 50 MOI adenovirus and switched to Lonza Basal SM media with volumes of 20 ml per 15 cm plate. Expression of the Flag tagged ADAMTS7 was confirmed from the media using western blot and detected using the anti-Flag M2-HRP antibody (Sigma, A8592). Collected media was processed by adding protease inhibitors (1 mM EDTA and 1 mM PMSF) and clarified by 500 g×5 min spin at 4 C to pellet cell debris. Cell media supernatants were then passed through a 0.22 um filter and kept chilled. Processed media was then concentrated 50-100× using 3 kDa Centricon Plus-70 filter unit, spun at 3,500 g×60 min at 4 C. Approximately 10% of the processed, concentrated media was set aside for total secretome proteolytic analysis. The remaining 90% of the processed, concentrated media was buffer exchanged into 50 mM HEPES pH 8.0, 150 mM NaCl (2×50 ml) using the 3 kDa Centricon Plus-70 filter unit and concentrated to >2 mg/ml to serve as input for the TAILS experiment. Secretome and TAILS input samples were stored at −80° C.
(§2) For the first experiment, referred to as SMC1, 120 ml of media from 6×15 cm dishes was pooled from each condition (Luc, WT, EQ) and processed to produce three separate inputs for the TAILS experiment. Luc, WT and EQ inputs from the SMC1 experiment were each divided into triplicate 400 ug samples to generate technical replicate TAILS data. For the second experiment, referred to as SMC2, media was processed separately in triplicate for each condition (Luc1, Luc2, Luc3, WT1, WT2, WT3, EQ1, EQ2, EQ3) using 60 ml of media from 3×15 cm dishes for each process replicate. Inputs from the SMC2 experiment used process replicates of 300 ug each to generate TAILS data. The third experiment used input from cultured Human umbilical vein endothelial cells (HUVEC) from Lifeline Cell Technology grown in VascuLife Media and transduced in Lifeline Basal EC (+bFGF2 10 ng/ml). The HUVEC experiment used the same strategy as the SMC2 experiment, with 40 ml of media from 2×15 cm dishes for each process replicate and used 200 ug each to generate TAILS data. Inputs for process replicate experiments were restricted to the lowest concentration from the 9 parallel samples for SMC2 or HUVEC.
(§3) TMT10 isotopic labeling and negative selection of non-labeled peptides-Sample preparation was performed based on the TAILS protocol from the Overall lab with some modifications. From a single experiment, nine parallel protein samples in 50 mM HEPES pH 8.0, 150 mM NaCl were separately denatured with guanidinium chloride (Sigma, G4505) to reach a final concentration of 2.5M guanidinium chloride and 250 mM HEPES and incubated at 65° C. for 15 min. Reduction was achieved through addition of tris(2-carboxylethyl) phosphine (TCEP) at a final concentration of […] and incubated at 65° C. for 45 min. Alkylation reaction was performed with addition of iodoacetamide (IAA, Sigma, A3221) to a final concentration of 10 mM IAA for 15 min at room temperature in the dark. Following denaturation, reduction and alkylation steps, ten percent of each of the nine parallel protein samples was removed and combined to serve as a pooled reference. Isobaric tags were added to free amine groups using the TMT10plex Isobaric Mass Tagging Kit (ThermoFisher, 90113) with TMT channels randomly assigned to the nine samples and TMT 131 assigned to the pooled reference. […]

[2] = system: mouse ADAMTS7; experiment: TMT10 TAILS N-terminomics, SMC1 experiment (Ad-mADAMTS7 WT vs EQ vs Luc, technical replicates, trypsin digest); assay type: cell-based; conditions: for SMC1 TAILS.total Intensity: TAILS HC Overlap, total intensity of the peptide
How it was run: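 Full-length mouse ADAMTS7 (WT or E373Q mutant, C-terminal 3xFLAG) or luciferase was transduced via adenovirus, 50 MOI, into HCA-SMC (SMC1, SMC2) or HUVEC. SMC1: pooled media, technical triplicates 400 ug; SMC2: process triplicates 300 ug; HUVEC: process triplicates 200 ug, bFGF2 10 ng/ml.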

[3] = system: mouse ADAMTS7; experiment: TMT10 TAILS N-terminomics, SMC2 experiment (process replicates, trypsin/AspN digest); assay type: cell-based; conditions: for SMC2 TAILS.total Intensity: SMC2 experiment, total intensity of the N-terminal (TAILS) peptide
Excerpt: as §1, §2, §3

[4] = TAILS N-terminal peptide signal, SMC scale-up fractions, mouse ADAMTS7, label = TAILS_id (gene symbol_StartAA)
[5] = total intensity of the N-terminal peptide spectra, SMC rd2 TAILS fractions, AspN/GluC search
[6] = SMC rd2 TAILS, AspGluN search, total spectral intensity of the N-terminal peptide (TAILS_id = gene_StartAA cleavage site)
[7] = TAILS N-terminal peptide identified in SMC conditioned media (scale-up, fractions), mouse ADAMTS7, value listed per TAILS_id (protein_StartAA)
[8] = intensity of the N-terminal (TAILS) peptide in SMC scale-up TAILS experiment, fractions, peptide identified by TAILS_id (gene symbol_StartAA)
[9] = SMC rd2 TAILS, AspGluN digest, total MS intensity of the N-terminal peptide at the given StartAA

Substance	ATS7_HUVEC_TAILS_frxns_mATS7inDB_AspGluN.total Intensity [1]	SMC1 TAILS.total Intensity [2]	SMC2 TAILS.total Intensity [3]	ATS7_SMC_rd2_TAILS_frxns_matS7inDB_AspGluN_retry.totalIntensity [3, 6]	TAILS_SMC_Scaleup_fxns_mATS7i [2, 7]	also measured
ASMT_321 (LSSAGFR; listed as Homo sapiens)	2.00E+09	–	–	–	–	–
BICD1_280 (NNDDKMNGHIHGPLVKLNGDYR; listed as Homo sapiens)	7.87E+09	–	–	–	–	–
CLU_267 (FQHPPTEFIR; listed as Homo sapiens)	9.81E+08	–	–	–	–	–
CTGF_173 (TVVGPALAAYR; listed as Homo sapiens)	3.77E+10	–	–	–	–	–
CTGF_174 (VVGPALAAYR; listed as Homo sapiens)	5.59E+08	–	–	–	–	–
ERAP2_718 (ISENLKR; listed as Homo sapiens)	3.67E+08	–	–	–	–	–
EWSR1_87 (YSQPVQGYGTGAY; listed as Homo sapiens)	1.50E+08	–	–	–	–	–
FBLN2_259 (ALGPPAPVQAKAR; listed as Homo sapiens)	–	1.04E+08	8.11E+08	–	–	TAILS_SMC_Scaleup_fxns_mATS7i [2, 4]: 1.04E+08; ATS7_SMC_rd2_TAILS_frxns_matS7inDB_AspGluN_retry.totalIntensity [3, 5]: 8.11E+08
FBLN2_260 (LGPPAPVQAKAR; listed as Homo sapiens)	–	7.69E+08	6.60E+09	–	–	TAILS_SMC_Scaleup_fxns_mATS7i [2, 4]: 7.69E+08; ATS7_SMC_rd2_TAILS_frxns_matS7inDB_AspGluN_retry.totalIntensity [3, 5]: 6.60E+09
FBN1_53 (LKGPNVCGSR; listed as Homo sapiens)	–	8.48E+08	2.58E+09	–	–	TAILS_SMC_Scaleup_fxns_mATS7i [2, 4]: 8.48E+08; ATS7_SMC_rd2_TAILS_frxns_matS7inDB_AspGluN_retry.totalIntensity [3, 5]: 2.58E+09
FN1_34 (QQMVQPQSPVAVSQSKPGCY; listed as Homo sapiens)	5.42E+09	–	–	–	–	–
FN1_293 (VYQPQPHPQPPPYGHCVT; listed as Homo sapiens)	7.01E+10	–	–	–	–	–
FN1_1144 (TPGVEYVYTIQVLR; listed as Homo sapiens)	2.58E+08	–	–	–	–	–
GSN_413 (HIANVER; listed as Homo sapiens)	–	2.44E+09	1.39E+09	1.39E+09	–	TAILS_SMC_Scaleup_fxns_mATS7i [2, 4]: 2.44E+09
HSPG2_2333 (LAYPAGSTQPIR; listed as Homo sapiens)	–	5.74E+07	3.02E+08	3.02E+08	–	TAILS_SMC_Scaleup_fxns_mATS7i [2, 4]: 5.74E+07
IGFBP3_31 (SAGLGPVVR; listed as Homo sapiens)	–	4.82E+08	1.02E+09	1.02E+09	4.82E+08	–
IGFBP3_32 (AGLGPVVR; listed as Homo sapiens)	–	2.11E+09	5.97E+09	5.97E+09	2.11E+09	–
LOXL1_219 (VASAGVIYPYQPR; listed as Homo sapiens)	–	2.12E+07	4.27E+08	4.27E+08	2.12E+07	–
LOXL2_38 (QQPAPEYHQPQAPANVAKIQLR; N-terminal label (q); listed as Homo sapiens)	–	2.79E+08	1.65E+08	1.65E+08	2.79E+08	–
LOX_58 (LSLGSQYQPQR; listed as Homo sapiens)	–	2.82E+08	6.15E+07	6.15E+07	2.82E+08	–
LOX_123 (HWFQAGYSTSR; listed as Homo sapiens)	–	1.50E+08	6.25E+08	6.25E+08	1.50E+08	–
LOX_126 (QAGYSTSR; listed as Homo sapiens)	–	4.18E+06	–	1.03E+08	4.18E+06	–
LTBP1_540 (HQQVIPHVYPVAAKTQLGR; listed as Homo sapiens)	–	1.90E+09	8.09E+08	8.09E+08	1.90E+09	–
NID2_951 (YAYPGAR; listed as Homo sapiens)	–	3.51E+08	2.03E+09	2.03E+09	3.51E+08	–
PPP1R18_295 (LSETLTR; listed as Homo sapiens)	–	7.16E+07	1.25E+08	1.25E+08	7.16E+07	–
VIM_314 (QESTEYR; listed as Homo sapiens)	–	4.88E+07	7.47E+08	–	–	TAILS_SMC_Scaleup_fxns_mATS7i [2, 8]: 4.88E+07; ATS7_SMC_rd2_TAILS_frxns_matS7inDB_AspGluN_retry.totalIntensity [3, 9]: 7.47E+08
VIM_333 (LKGTNESLER; listed as Homo sapiens)	–	2.04E+08	1.10E+08	–	–	TAILS_SMC_Scaleup_fxns_mATS7i [2, 8]: 2.04E+08; ATS7_SMC_rd2_TAILS_frxns_matS7inDB_AspGluN_retry.totalIntensity [3, 9]: 1.10E+08
